Data as given in PubChem BioAssay AID686937 (Drosophila RNAi Screening Center, 2013)
In all, the deposit lists about 23,000 reagents; this is an unselected part of those that have a named target and a result. 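Reduced-secretion tags in replicate 1 do not always agree with the z-scores; no criterion for assigning the tags was given.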 A plus sign joins genes that one reagent is predicted to hit. No sequences are given here. The record does not give: the amount of reagent.

Test: 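Knock-downs that reduce output of a secreted reporter enzyme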 (primary screen)
Cells: Drosophila S2 cells expressing secreted horseradish peroxidase
Knock-down reagent: long dsRNA against Drosophila genes
Time to read-out: about 5.5 days (5 days dsRNA, then 12 h reporter induction)
Treatment: reporter expression induced after 5 days of dsRNA, read 12 h later; inducer not stated
Measurement: 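After 5 days of dsRNA and 12 h of reporter induction, medium peroxidase read by chemiluminescence and scored as per-plate z-score; higher values mean more reporter released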
Scale: z-score: higher = more reporter secreted into medium

no.	Gene	dsRNA	z-score, replicate 1	z-score, replicate 2	z-score, replicate 3	z-score, replicate 4	phenotype, replicate 1
1	CG32161	DRSC22128	-0.61	0.07			
2	RecQ5	DRSC11266	0.29	0.49			
3	CG43308	DRSC05893	0.37	0.56			
4	CG3088	DRSC10352	0.31	0.22			
5	CG13926	DRSC08395	0.12	0.24			
6	CG46441	DRSC15561	0.29	0.43			
7	CG17199	DRSC15192	0.22	0.42			
8	Pcyt2	DRSC08531	0.06	0.06			
9	qjt	DRSC10060	-0.21	0.13			
10	CG10953	DRSC06021	0.28	0.09			
11	Epg5	DRSC14778	0.32	0.42			
12	Obp56d	DRSC06064	0.27	0.28			
13	Got1	DRSC07177	0.36	0.11			
14	blp	DRSC15757	0.13	-0.7			
15	Ns4	DRSC03199	0.34	0.26			
16	dac	DRSC03518	0.49	0.31			
17	CG11842	DRSC14400	0.48	0.68			
18	CG11155	DRSC17184	0.82	0.24			
19	CG11155	DRSC17205	0.41	0.2			
20	CG4995	DRSC02801	0.27	0.31			
21	CG34234 + Dh44-R2	DRSC07278	0.27	0.43			
22	Dcr-2	DRSC06992	0.38	-0.33			
23	Sodh2	DRSC16865	0.29	0.65			
24	Cyp313b1	DRSC16629	0.36	0.27			
25	CG3557	DRSC00614	0.14	0.21			
26	Sh	DRSC19214	-4.95	-1.57			reduced secretion
27	Sh	DRSC19220	0.3	0.06	-0.17	0.09	
28	Sh	DRSC19785	0.39	0.5			
29	Sh	DRSC20055	0.15	0.3			
30	Sh	DRSC22567	0.32	0.08			
31	psidin	DRSC15660	0.3	0.04			
32	CG14329	DRSC14808	-0.85	-0.28			
33	Peritrophin-15a	DRSC02636	0.26	0.29			
34	Bcs1	DRSC02789	0.14	0.25			
35	CG9313	DRSC04540	0.31	0.43			
36	phyl	DRSC07663	0.19	0.25			
37	CG30338	DRSC05166	0.44				
38	CG31528	DRSC12003	0.35	0.23			
39	CG13457	DRSC10004	0.15	0.06			
40	Gmppa	DRSC07108	0.12	-0.32			
41	CG10257	DRSC05985	0	0.21			
42	Top3alpha	DRSC03460	0.17	0.17			
43	CG44000 + CG33995 + CG44001	DRSC00853	0.5	-0.33			
44	CG44000 + CG33995 + CG44001	DRSC02898	-0.1	0.27			
45	Rac1	DRSC08688	-0.48	-0.42			
46	CG6179	DRSC19973	0.56	0.66			
47	VhaSFD	DRSC03471	0.23	0.33			
48	CG15213	DRSC10213	-1.09	-0.02			
49	disco	DRSC20323	-0.15	0.52			
50	alpha4GT1	DRSC00488	0.29	0.36			
51	ana	DRSC07579	-0.17	0.18			
52	CG11777	DRSC06081	0.43	0.26			
53	CG42819	DRSC02264	0.53	0.49			
54	MFS16	DRSC04051	-0.12	0.26			
55	CstF50	DRSC15434	0.4	0.39			
56	CG30283	DRSC04071	0.19	0.17			

Ordered by “z-score, replicate 1” (low to high): 11 of the entries above
Gene	dsRNA	z-score, replicate 1	z-score, replicate 2	z-score, replicate 3	z-score, replicate 4	phenotype, replicate 1
Rac1	DRSC08688	-0.48	-0.42			
CG44000 + CG33995 + CG44001	DRSC02898	-0.1	0.27			
CG10257	DRSC05985	0	0.21			
Gmppa	DRSC07108	0.12	-0.32			
CG13457	DRSC10004	0.15	0.06			
Top3alpha	DRSC03460	0.17	0.17			
VhaSFD	DRSC03471	0.23	0.33			
CG31528	DRSC12003	0.35	0.23			
CG30338	DRSC05166	0.44				
CG44000 + CG33995 + CG44001	DRSC00853	0.5	-0.33			
CG6179	DRSC19973	0.56	0.66			

The list goes on:
no.	Gene	dsRNA	z-score, replicate 1	z-score, replicate 2	z-score, replicate 3	z-score, replicate 4	phenotype, replicate 1
57	CG11122	DRSC19382	0.15	-0.25			
58	Amy-p	DRSC06786	0.22	0.22			
59	Gsc	DRSC00755	0.44	0.2			
60	CG34204	DRSC03897	0.36	0.19			
61	NLaz	DRSC21521	0.36	-0.45			
62	CG33270	DRSC10584	-0.04	-0.1			
63	Vm32E	DRSC03474	-0.3	-0.09			
64	Damm	DRSC07393	0.08	0.19			
65	CG15200	DRSC19647	0.24	-0.05			
66	O-fut1	DRSC06138	0.32	0.3			
67	beta4GalT7	DRSC14385	0.1	0.21			
68	MESR4	DRSC06901	0.46	0.33			
69	DppIII	DRSC16241	0.57	0.62			
70	mEFG1	DRSC02758	-0.61	-0.53			
71	Gr93a	DRSC14593	0.26	0.13			
72	CG15042	DRSC19618	-0.22	-0.62			
73	vib	DRSC17094	0.46	0.31			
74	CG17601	DRSC20639	0.57	0.25			
75	CG6865	DRSC10732	0.2	-0.1			
76	CG15142	DRSC02443	-0.19	0.22			
77	dpr10	DRSC09015	0.19	0.2			
78	dpr10	DRSC09018	0.34	0.2			
79	dpr10	DRSC10159	0.28	0.14			
80	dpr10	DRSC10160	0.45	0.38			
81	Cyp12a4	DRSC16620	0.27	0.2			
82	CG34417	DRSC17467	-0.18	0.26			
83	CG34417	DRSC18332	0.27	0.53			
84	CG34417	DRSC18333	0.31	0.29			
